Structures can show the parent of a compound that is named as a salt. The list shows a part of the results. Hit calls seldom repeat between salt and free forms of one compound.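 Kinases were expressed as nanoluciferase fusions in K562 cells and luminescence was read every 4 h between 2 and 18 h as percent of control, DMSO set to 100% and a positive control to 0%. A time point counts as decreased when the signal drops significantly (2 sigma). The hit call is the authors' own, does not follow from the count of time points alone, and its rule is not shown.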
What follows are molecules tested against CDK3 (UniProt Q00526) (assay: kinase-Nluc reporter destabilization hit call (1 = scored as downregulated) (binary); higher = compound decreases kinase abundance). Settings: 2 µM; K562; 2-18 h.

Sequences of proteins named here, by UniProt entry; tags and fusion partners are left off. A change or cut given only in a name is not applied to a line headed by its entry.
UniProt Q00526: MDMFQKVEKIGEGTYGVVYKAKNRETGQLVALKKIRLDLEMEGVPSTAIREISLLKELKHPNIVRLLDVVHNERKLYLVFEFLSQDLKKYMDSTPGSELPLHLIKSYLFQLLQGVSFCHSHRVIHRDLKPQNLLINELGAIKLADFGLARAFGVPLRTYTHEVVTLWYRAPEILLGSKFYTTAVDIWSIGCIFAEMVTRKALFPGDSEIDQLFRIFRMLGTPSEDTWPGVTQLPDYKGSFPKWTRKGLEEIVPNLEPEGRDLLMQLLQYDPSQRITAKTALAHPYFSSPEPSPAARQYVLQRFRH

kinase-Nluc reporter destabilization hit call, inactive:
CCc1nc(C(N)=O)c(Nc2ccc(N3CCC(N4CCN(C)CC4)CC3)c(OC)c2)nc1NC1CCOCC1 [Gilteritinib] 0
CCc1nc(C(N)=O)c(Nc2ccc(N3CCC(N4CCN(C)CC4)CC3)c(OC)c2)nc1NC1CCOCC1 [Gilteritinib hemifumarate] 0
Cc1[nH]c(/C=C2\C(=O)Nc3ccc(F)cc32)c(C)c1C(=O)NCCN1CCCC1 [Toceranib (phosphate)] 0
Cc1[nH]c(/C=C2\C(=O)Nc3ccc(F)cc32)c(C)c1C(=O)NCCN1CCCC1 [Toceranib] 0

Same assay, conditions: 2.5 µM; K562; 2-18 h

kinase-Nluc reporter destabilization hit call, inactive:
C=CC(=O)Nc1cc(Nc2nccc(-c3cn(C)c4ccccc34)n2)c(OC)cc1N(C)CCN(C)C [Osimertinib mesylate] 0
c1cc(-c2cnn3cc(-c4ccc(OCCN5CCCCC5)cc4)cnc23)ccn1 [Dorsomorphin] 0
CN(C)C/C=C/C(=O)Nc1cc2c(Nc3ccc(F)c(Cl)c3)ncnc2cc1O[C@H]1CCOC1 [Afatinib (dimaleate)] 0
C=CC(=O)Nc1cc(Nc2nccc(-c3cn(C)c4ccccc34)n2)c(OC)cc1N(C)CCN(C)C [Osimertinib] 0
CN(C)C(=O)c1cc2cnc(Nc3ccc(N4CCNCC4)cn3)nc2n1C1CCCC1 [Ribociclib hydrochloride] 0
COc1ccc(S(=O)(=O)Nc2ccccc2CN(C)C/C=C/c2ccc(Cl)cc2)cc1 [KN-92 (hydrochloride)] 0
COc1ccc(S(=O)(=O)Nc2ccccc2CN(C)C/C=C/c2ccc(Cl)cc2)cc1 [KN-92 (phosphate)] 0

Same assay, conditions: 10 µM; K562; 2-18 h

kinase-Nluc reporter destabilization hit call, inactive:
CCS(=O)(=O)N1CCN(c2ccc(Nc3ncc(C(N)=O)c(NC4CC4)n3)cc2)CC1 [Cerdulatinib (hydrochloride)] 0
C[C@@H](N)c1ccc(C(=O)Nc2ccnc3[nH]ccc23)cc1 0
COc1ncc(F)cc1CNc1ccc(Cc2c[nH]c3ncc(C)cc23)c(F)n1 0
CCS(=O)(=O)N1CC(CC#N)(n2cc(-c3ncnc4[nH]ccc34)cn2)C1 [Baricitinib (phosphate)] 0
COC(=O)[C@H](CC(C)C)NC(=O)c1ccc(NC[C@@H](N)CS)cc1-c1cccc2ccccc12 [GGTI298 (Trifluoroacetate)] 0
COCCOc1cc(F)c2c(Nc3ccc(NC(=O)Cn4cc(C(C)C)nn4)cc3)ncnc2c1 [AZD3229 Tosylate] 0
CC(C)(C)n1nc(-c2cccc3ccccc23)c2c(N)ncnc21 [1-Naphthyl PP1] 0
N#CCNC(=O)c1ccc(-c2ccnc(Nc3ccc(N4CCOCC4)cc3)n2)cc1 [Momelotinib sulfate] 0
Cn1ncc(Cl)c1-c1cc(C(=O)N[C@H](CN)Cc2cccc(F)c2)sc1Cl [Afuresertib] 0
CNC(=O)c1ccc(Nc2ncc(C(F)(F)F)c(NCc3nccnc3N(C)S(C)(=O)=O)n2)cc1 [Defactinib] 0
O=C(O)c1ccc2c(c1)nc(Nc1cccc(Cl)c1)c1ccncc12 [Silmitasertib] 0
O=C(Nc1cnn2ccc(N3CCC[C@@H]3c3cc(F)ccc3F)nc12)N1CC[C@H](O)C1 [Larotrectinib] 0
COc1cc2nccc(Oc3ccc(NC(=O)C4(C(=O)Nc5ccc(F)cc5)CC4)cc3)c2cc1OC [Cabozantinib (S-malate)] 0
CN(C)C(=N)NC(=N)N [Metformin (hydrochloride)] 0
COc1ccnc(C[S+]([O-])c2nc3cc(-n4cccc4)ccc3[nH]2)c1C (configuration not stated) [Ilaprazole (sodium)] 0
C#Cc1cccc(Nc2ncnc3cc4c(cc23)OCCOCCOCCO4)c1 [Icotinib (Hydrochloride)] 0
CC(C)NC[C@@H](C(=O)N1CCN(c2ncnc3c2[C@H](C)C[C@H]3O)CC1)c1ccc(Cl)cc1 [Ipatasertib] 0
CC(=O)c1c(C)c2cnc(Nc3ccc(N4CCNCC4)cn3)nc2n(C2CCCC2)c1=O [Palbociclib (monohydrochloride)] 0
C#Cc1cccc(Nc2ncnc3cc(OCCOC)c(OCCOC)cc23)c1 [Erlotinib] 0
OCCn1cc(-c2cnc3nnn(Cc4ccc5ncccc5c4)c3n2)cn1 0
CCN(CC)CC(=O)Nc1c(C)cccc1C [Lidocaine] 0
CCS(=O)(=O)N1CCN(c2ccc(Nc3ncc(C(N)=O)c(NC4CC4)n3)cc2)CC1 [Cerdulatinib] 0
C#Cc1cccc(Nc2ncnc3cc(OCCOC)c(OCCOC)cc23)c1 [Erlotinib (Hydrochloride)] 0
O=C(c1ccc(F)c(F)c1Nc1ccc(I)cc1F)N1CC(O)([C@@H]2CCCCN2)C1 [Cobimetinib] 0
CC(C)(C)n1nc(-c2cccc3ccccc23)c2c(N)ncnc21 [1-Naphthyl PP1 (hydrochloride)] 0
CC(=O)c1c(C)c2cnc(Nc3ccc(N4CCNCC4)cn3)nc2n(C2CCCC2)c1=O [Palbociclib (isethionate)] 0

Not a retest: entries from further up.
kinase-Nluc reporter destabilization hit call, inactive:
CCS(=O)(=O)N1CCN(c2ccc(Nc3ncc(C(N)=O)c(NC4CC4)n3)cc2)CC1 [Cerdulatinib (hydrochloride)] 0
C[C@@H](N)c1ccc(C(=O)Nc2ccnc3[nH]ccc23)cc1 0
COc1ncc(F)cc1CNc1ccc(Cc2c[nH]c3ncc(C)cc23)c(F)n1 0
CCS(=O)(=O)N1CC(CC#N)(n2cc(-c3ncnc4[nH]ccc34)cn2)C1 [Baricitinib (phosphate)] 0
COC(=O)[C@H](CC(C)C)NC(=O)c1ccc(NC[C@@H](N)CS)cc1-c1cccc2ccccc12 [GGTI298 (Trifluoroacetate)] 0
COCCOc1cc(F)c2c(Nc3ccc(NC(=O)Cn4cc(C(C)C)nn4)cc3)ncnc2c1 [AZD3229 Tosylate] 0
CC(C)(C)n1nc(-c2cccc3ccccc23)c2c(N)ncnc21 [1-Naphthyl PP1] 0
N#CCNC(=O)c1ccc(-c2ccnc(Nc3ccc(N4CCOCC4)cc3)n2)cc1 [Momelotinib sulfate] 0
Cn1ncc(Cl)c1-c1cc(C(=O)N[C@H](CN)Cc2cccc(F)c2)sc1Cl [Afuresertib] 0
CNC(=O)c1ccc(Nc2ncc(C(F)(F)F)c(NCc3nccnc3N(C)S(C)(=O)=O)n2)cc1 [Defactinib] 0
O=C(O)c1ccc2c(c1)nc(Nc1cccc(Cl)c1)c1ccncc12 [Silmitasertib] 0
O=C(Nc1cnn2ccc(N3CCC[C@@H]3c3cc(F)ccc3F)nc12)N1CC[C@H](O)C1 [Larotrectinib] 0

— the supplement of paper PMC12823440, “Inhibitors supercharge kinase turnover through native proteolytic circuits” (Nature, 2025)
